Source: the supplement of paper PMC10849652
The other results are listed elsewhere or left out. Residues, ends and D or L forms follow the SMILES beside them. *: point of attachment. Cbz = O=C(OCc1ccccc1)*

The chains behind the UniProt entries cited, without tags or fusion partners. Where a name states a change or a piece, a line headed by the entry shows the natural chain unless it says otherwise.
UniProt P49914: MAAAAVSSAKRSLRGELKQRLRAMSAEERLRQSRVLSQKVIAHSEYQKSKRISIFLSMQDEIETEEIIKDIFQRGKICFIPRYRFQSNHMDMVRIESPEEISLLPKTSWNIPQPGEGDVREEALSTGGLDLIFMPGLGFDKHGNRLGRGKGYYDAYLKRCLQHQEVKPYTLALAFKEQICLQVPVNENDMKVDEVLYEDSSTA
UniProt P03928: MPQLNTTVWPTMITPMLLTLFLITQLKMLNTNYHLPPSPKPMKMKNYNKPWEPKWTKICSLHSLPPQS
UniProt Q969V5: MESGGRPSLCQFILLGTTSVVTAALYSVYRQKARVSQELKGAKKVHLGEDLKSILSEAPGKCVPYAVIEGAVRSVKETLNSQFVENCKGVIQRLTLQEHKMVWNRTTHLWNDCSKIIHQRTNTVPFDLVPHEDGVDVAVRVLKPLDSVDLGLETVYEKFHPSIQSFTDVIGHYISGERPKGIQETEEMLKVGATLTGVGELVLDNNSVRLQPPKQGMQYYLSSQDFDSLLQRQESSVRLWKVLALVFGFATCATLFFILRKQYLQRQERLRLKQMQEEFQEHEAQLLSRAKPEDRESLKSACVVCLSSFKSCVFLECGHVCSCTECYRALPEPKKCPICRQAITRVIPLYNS
UniProt P13640: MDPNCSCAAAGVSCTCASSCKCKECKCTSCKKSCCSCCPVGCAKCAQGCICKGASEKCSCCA
UniProt Q9BUK6: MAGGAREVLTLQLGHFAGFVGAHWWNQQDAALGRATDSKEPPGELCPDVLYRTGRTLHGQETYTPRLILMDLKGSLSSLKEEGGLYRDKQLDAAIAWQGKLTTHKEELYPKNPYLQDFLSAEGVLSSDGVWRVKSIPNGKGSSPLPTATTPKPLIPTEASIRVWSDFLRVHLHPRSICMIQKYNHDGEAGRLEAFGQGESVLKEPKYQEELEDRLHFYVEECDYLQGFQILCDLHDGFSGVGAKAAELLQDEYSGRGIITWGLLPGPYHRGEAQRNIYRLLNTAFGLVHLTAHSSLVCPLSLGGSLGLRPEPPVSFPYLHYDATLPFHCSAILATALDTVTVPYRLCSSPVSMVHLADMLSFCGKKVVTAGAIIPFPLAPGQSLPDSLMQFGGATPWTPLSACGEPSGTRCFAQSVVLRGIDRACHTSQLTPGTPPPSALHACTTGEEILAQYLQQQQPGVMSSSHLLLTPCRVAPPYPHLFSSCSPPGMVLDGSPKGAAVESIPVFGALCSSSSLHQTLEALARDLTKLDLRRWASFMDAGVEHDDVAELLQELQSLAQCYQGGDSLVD
UniProt P20585: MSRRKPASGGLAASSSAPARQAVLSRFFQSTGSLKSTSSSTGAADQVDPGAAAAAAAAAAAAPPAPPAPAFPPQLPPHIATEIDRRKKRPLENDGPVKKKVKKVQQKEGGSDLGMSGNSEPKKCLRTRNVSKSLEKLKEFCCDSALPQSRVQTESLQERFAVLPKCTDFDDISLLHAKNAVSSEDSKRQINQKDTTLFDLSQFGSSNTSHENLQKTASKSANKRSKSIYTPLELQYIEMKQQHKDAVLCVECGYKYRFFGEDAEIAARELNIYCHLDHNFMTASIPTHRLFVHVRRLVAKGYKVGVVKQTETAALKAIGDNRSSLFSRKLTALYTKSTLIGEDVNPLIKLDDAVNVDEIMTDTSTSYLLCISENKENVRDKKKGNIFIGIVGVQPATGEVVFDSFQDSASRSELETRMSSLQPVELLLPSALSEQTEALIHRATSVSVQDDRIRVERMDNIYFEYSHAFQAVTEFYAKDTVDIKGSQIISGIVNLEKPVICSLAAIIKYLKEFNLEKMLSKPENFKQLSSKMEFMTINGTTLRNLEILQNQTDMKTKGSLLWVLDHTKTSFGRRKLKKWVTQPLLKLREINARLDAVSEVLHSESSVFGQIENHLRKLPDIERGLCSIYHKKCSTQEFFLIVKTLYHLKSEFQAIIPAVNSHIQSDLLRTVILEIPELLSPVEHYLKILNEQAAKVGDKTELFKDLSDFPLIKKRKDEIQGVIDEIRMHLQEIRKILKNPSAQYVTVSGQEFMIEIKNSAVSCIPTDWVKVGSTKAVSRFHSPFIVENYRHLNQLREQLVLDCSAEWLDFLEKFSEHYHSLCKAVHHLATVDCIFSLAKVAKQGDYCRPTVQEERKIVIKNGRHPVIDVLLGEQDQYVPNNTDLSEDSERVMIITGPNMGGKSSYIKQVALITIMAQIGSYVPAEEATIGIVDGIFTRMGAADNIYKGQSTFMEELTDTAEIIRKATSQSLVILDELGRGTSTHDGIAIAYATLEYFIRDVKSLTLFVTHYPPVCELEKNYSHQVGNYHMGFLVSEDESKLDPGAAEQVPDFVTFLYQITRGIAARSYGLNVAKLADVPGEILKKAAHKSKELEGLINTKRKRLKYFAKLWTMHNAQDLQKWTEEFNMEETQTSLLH
UniProt Q8NCE2: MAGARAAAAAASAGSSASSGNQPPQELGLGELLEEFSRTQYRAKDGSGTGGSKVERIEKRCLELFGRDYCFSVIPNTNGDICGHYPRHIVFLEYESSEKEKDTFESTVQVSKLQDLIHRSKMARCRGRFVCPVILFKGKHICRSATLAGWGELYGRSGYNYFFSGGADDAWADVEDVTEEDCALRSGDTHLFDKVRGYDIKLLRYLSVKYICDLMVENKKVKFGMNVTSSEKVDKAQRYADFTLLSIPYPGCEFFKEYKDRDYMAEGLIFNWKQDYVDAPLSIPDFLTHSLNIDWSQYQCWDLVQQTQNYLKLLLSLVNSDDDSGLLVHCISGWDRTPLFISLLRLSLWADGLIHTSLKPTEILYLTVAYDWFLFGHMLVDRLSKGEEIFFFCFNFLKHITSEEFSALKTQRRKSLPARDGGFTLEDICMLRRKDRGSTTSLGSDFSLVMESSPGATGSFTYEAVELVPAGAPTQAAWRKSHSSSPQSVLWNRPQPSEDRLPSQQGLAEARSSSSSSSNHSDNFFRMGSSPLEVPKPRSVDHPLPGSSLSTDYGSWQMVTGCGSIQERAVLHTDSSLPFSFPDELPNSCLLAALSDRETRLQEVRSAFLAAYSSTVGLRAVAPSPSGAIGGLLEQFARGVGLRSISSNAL
UniProt Q96H55, whole entry, looked up: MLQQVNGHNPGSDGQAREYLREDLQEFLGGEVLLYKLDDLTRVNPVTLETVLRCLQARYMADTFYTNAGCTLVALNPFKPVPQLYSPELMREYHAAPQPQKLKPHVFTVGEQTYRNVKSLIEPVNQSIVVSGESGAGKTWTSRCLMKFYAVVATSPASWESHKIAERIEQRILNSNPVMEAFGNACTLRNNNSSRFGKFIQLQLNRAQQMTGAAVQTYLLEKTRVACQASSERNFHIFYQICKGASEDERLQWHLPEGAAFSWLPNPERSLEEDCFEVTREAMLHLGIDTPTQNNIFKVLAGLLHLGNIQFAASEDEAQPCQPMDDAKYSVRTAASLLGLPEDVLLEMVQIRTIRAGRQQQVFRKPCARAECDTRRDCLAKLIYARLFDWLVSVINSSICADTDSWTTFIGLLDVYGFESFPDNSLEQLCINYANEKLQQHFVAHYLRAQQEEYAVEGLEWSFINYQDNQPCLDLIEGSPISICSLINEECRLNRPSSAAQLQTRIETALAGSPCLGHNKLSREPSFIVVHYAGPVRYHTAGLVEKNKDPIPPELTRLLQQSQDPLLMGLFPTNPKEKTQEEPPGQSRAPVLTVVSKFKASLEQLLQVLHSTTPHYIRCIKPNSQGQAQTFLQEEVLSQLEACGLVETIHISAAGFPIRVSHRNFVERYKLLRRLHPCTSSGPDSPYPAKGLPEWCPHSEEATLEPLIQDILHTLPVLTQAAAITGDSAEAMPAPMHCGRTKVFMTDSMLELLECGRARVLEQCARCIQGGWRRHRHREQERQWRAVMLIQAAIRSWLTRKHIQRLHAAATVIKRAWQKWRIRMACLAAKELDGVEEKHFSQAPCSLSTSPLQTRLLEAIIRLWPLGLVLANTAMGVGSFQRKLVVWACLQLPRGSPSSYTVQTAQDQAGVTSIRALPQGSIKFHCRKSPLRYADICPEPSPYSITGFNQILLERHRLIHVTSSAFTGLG
UniProt B2RTY4: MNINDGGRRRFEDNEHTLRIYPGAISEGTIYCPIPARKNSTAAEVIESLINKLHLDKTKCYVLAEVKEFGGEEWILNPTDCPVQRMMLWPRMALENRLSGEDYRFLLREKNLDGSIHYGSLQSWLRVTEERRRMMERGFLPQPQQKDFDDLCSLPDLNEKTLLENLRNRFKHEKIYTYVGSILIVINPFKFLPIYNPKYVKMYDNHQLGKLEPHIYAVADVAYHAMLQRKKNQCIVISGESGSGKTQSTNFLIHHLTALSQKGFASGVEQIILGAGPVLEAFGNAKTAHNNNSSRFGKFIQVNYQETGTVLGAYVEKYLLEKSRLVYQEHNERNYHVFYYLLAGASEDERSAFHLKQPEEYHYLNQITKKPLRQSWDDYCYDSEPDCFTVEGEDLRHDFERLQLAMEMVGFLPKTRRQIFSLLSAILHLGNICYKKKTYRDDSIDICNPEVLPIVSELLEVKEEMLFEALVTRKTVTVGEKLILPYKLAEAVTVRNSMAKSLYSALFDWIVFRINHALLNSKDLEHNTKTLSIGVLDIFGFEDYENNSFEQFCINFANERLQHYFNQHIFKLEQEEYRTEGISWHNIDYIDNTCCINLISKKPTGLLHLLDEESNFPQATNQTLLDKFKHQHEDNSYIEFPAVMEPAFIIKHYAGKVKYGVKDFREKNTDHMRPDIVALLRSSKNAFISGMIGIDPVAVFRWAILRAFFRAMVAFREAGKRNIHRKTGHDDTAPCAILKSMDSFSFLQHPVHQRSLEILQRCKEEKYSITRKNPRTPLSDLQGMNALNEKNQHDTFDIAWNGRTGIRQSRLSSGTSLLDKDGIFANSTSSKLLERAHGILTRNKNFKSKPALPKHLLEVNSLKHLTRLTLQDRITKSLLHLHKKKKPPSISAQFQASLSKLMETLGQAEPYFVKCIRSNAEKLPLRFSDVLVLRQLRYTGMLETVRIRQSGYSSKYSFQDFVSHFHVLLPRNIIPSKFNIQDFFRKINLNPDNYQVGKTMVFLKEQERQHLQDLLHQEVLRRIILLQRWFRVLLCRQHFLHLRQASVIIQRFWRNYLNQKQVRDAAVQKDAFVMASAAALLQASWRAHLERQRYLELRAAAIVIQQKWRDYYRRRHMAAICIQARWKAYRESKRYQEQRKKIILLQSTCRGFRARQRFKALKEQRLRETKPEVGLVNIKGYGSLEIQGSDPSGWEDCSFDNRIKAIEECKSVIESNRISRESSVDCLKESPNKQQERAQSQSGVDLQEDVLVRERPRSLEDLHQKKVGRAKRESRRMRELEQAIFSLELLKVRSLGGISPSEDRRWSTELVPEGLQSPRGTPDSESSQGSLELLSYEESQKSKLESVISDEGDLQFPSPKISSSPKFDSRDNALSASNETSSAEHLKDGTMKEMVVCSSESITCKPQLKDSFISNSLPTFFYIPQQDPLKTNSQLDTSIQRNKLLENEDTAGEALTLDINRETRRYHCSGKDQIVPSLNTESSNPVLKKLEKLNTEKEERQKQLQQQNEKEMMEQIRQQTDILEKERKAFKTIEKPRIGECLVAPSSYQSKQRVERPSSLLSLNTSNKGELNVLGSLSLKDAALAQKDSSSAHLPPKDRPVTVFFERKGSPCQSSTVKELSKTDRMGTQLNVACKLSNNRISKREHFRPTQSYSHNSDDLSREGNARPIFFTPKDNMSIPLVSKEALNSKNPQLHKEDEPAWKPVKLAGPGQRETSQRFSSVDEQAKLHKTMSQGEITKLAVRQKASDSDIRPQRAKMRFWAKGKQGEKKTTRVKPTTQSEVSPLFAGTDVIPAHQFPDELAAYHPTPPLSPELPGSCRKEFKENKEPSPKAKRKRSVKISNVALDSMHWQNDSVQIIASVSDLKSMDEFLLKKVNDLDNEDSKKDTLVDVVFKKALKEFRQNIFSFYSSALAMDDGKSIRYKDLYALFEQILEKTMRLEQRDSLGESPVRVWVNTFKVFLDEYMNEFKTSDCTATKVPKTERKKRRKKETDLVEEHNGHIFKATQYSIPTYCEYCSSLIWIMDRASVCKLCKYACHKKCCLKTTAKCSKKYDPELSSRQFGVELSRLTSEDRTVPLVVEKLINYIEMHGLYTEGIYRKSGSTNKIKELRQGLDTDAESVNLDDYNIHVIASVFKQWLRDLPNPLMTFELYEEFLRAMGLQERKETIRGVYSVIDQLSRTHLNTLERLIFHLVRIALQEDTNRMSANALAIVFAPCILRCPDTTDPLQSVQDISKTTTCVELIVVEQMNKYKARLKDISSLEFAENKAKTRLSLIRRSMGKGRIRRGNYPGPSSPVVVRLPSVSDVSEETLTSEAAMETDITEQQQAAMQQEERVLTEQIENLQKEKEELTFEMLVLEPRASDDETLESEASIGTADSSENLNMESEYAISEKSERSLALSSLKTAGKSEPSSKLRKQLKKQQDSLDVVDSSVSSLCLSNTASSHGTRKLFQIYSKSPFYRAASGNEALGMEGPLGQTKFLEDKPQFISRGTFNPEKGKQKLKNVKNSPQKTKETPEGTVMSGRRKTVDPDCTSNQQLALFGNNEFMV

Experiments:
Assay in all cases: log2 fold change, soluble protein after heating vs DMSO (PISA); higher = thermal stabilisation; K562 cells, 10 uM, 30 min; active = over 0.2 and 3.5 SD of the protein, either way, in both replicates (recomputed)
IRAK-1-4 Inhibitor I = compound: C1COCCN1CCN2C3=CC=CC=C3N=C2NC(=O)C4=CC(=CC=C4)[N+](=O)[O-] [IRAK-1-4 Inhibitor I]
Procedure, shortened: (§1)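 For each measurement, 10 μM compound was applied for 30 min to K562 cells at 2×10^6 cells/mL. Aliquots were heated for 3 min across 48°C-58°C, pooled, and extracted in PBS with 0.5% NP-40 at 4°C; the supernatant after 21,000xg for 90 min was soluble protein. This was quantified by TMTpro 16plex LC-MS/MS with channel sums equalised, and thermal stability was reported relative to control samples from duplicates, on a log2 fold-change scale.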

ibrutinib = compound: C=CC(=O)N1CCC[C@@H](n2nc(-c3ccc(Oc4ccccc4)cc3)c3c(N)ncnc32)C1 [ibrutinib]
Procedure, shortened: as §1

[1] = compound: CC(=O)c1cnc2ccc(-c3cc(Cl)c(O)c(Cl)c3)nc2c1N[C@H]1CC[C@H](CN(C)C)CC1
Procedure, shortened: as §1

ralimetinib = compound: CC(C)(C)Cn1c(N)nc2ccc(-c3[nH]c(C(C)(C)C)nc3-c3ccc(F)cc3)nc21 [ralimetinib]
Procedure, shortened: as §1

[2] = compound: CC(C)(O)CC(=O)NCCn1ccc2ncnc(Nc3ccc(Oc4cccc(C(F)(F)F)c4)c(Cl)c3)c21
Procedure, shortened: as §1

[3] = compound: CC(C)C1=C2N=C(C=C(N2N=C1)NCC3=CC=CC=C3)NCCCCCCN
Procedure, shortened: as §1

[4] = compound: CC(C)C[C@@H](C=O)NC(=O)[C@H](CC(C)C)NC(=O)[C@H](CC(C)C)NC(=O)OCc1ccccc1
Procedure, shortened: as §1

pinometostat = compound: CC(C)N(C[C@H]1O[C@@H](n2cnc3c(N)ncnc32)[C@H](O)[C@@H]1O)[C@H]1C[C@@H](CCc2nc3cc(C(C)(C)C)ccc3[nH]2)C1 [pinometostat]
Procedure, shortened: as §1

[5] = compound: CC1=C(C2=C(C=C1)C(=O)C3=CC=CC=C3N2CCCN)C
Procedure, shortened: as §1

[6] = compound: CC1=C(C=C(C=C1)NC(=O)C2=CC(=CC=C2)C(C)(C)C#N)NC3=CC4=C(C=C3)N=CN(C4=O)C
Procedure, shortened: as §1

[7] = compound: CC1=C(C=C(C=C1)NC(=O)C2=CC(=CC=C2)N(C)C)NC(=O)C3=CC=C(C=C3)O
Procedure, shortened: as §1

[8] = compound: CC1=CC=C(C=C1)SC2=C3C=C(SC3=CN=C2)C(=O)N
Procedure, shortened: as §1

[9] = compound: CC1=NC(=CC=C1)C2=C(N=C(N2)C(C)(C)C)C3=CC4=NC=CN=C4C=C3
Procedure, shortened: as §1

Nexturastat A = compound: CCCCN(Cc1ccc(C(=O)NO)cc1)C(=O)Nc1ccccc1 [Nexturastat A]
Procedure, shortened: as §1

vemurafenib = compound: CCCS(=O)(=O)Nc1ccc(F)c(C(=O)c2c[nH]c3ncc(-c4ccc(Cl)cc4)cc23)c1F [vemurafenib]
Procedure, shortened: as §1

[10] = compound: CCCS(=O)(=O)Nc1ccc(F)c(C(=O)c2c[nH]c3ncc(Cl)cc23)c1F
Procedure, shortened: as §1

[11] = compound: CCCc1cc(C)[nH]c(=O)c1CNC(=O)c1cc(-c2ccnc(N3CCN(C)CC3)c2)cc2c1cnn2C(C)C
Procedure, shortened: as §1

givinostat = compound: CCN(CC)Cc1ccc2cc(COC(=O)Nc3ccc(C(=O)NO)cc3)ccc2c1 [givinostat]
Procedure, shortened: as §1

barasertib = compound: CCN(CCCOc1ccc2c(Nc3cc(CC(=O)Nc4cccc(F)c4)[nH]n3)ncnc2c1)CCOP(=O)(O)O [barasertib]
Procedure, shortened: as §1

[12] = compound: CC1=C(C(CC(=O)N1)C2=CC=C(C=C2)C(F)(F)F)C(=O)NC3=C(C=C4C(=C3)C=NN4)F
Procedure, shortened: as §1

Measured: log2 fold change

MTHFS (UniProt P49914)
inactive: IRAK-1-4 Inhibitor I -0.003 | ibrutinib -0.01 | [1] -0.009 | ralimetinib -0.09 | [2] -0.095 | [3] -0.009 | [4] 0.007 | pinometostat -0.03 | [5] 0.031 | [6] 0.047 | [7] -0.054 | [8] -0.01 | [9] 0.047 | Nexturastat A -0.005 | vemurafenib -0.017 | [10] 0.01 | [11] -0.041 | givinostat -0.063 | barasertib 0.009

MT-ATP8 (UniProt P03928)
inactive: IRAK-1-4 Inhibitor I 0.016 | ibrutinib 0 | [1] 0.012 | [2] -0.062 | [3] 0.115 | pinometostat -0.006 | [12] 0.044 | [5] -0.029 | [6] 0.18 | [9] 0.142 | Nexturastat A -0.065 | [11] -0.087 | givinostat -0.024 | barasertib -0.03

MYH11 isoform 2 (UniProt P35749)
inactive: IRAK-1-4 Inhibitor I 0.035 | ibrutinib -0.013 | [1] 0.028 | ralimetinib -0.016 | [2] -0.107 | [3] 0.056 | [4] -0.002 | pinometostat -0.042 | [5] -0.024 | [6] 0.009 | [7] 0.057 | [8] -0.003 | [9] 0.004 | Nexturastat A -0.014 | vemurafenib 0.051 | [10] -0.006 | [11] -0.253 | givinostat 0.032 | barasertib 0.057

MRPS18B (UniProt Q9Y676)
inactive: IRAK-1-4 Inhibitor I -0.026 | ibrutinib 0.103 | [1] -0.096 | ralimetinib -0.022 | [2] -0.025 | [3] -0.043 | [4] 0.137 | pinometostat -0.005 | [5] -0.068 | [6] -0.036 | [7] -0.165 | [8] -0.08 | [9] 0.009 | Nexturastat A 0.031 | vemurafenib -0.074 | [10] 0 | [11] -0.081 | givinostat 0.075 | barasertib -0.017

MRPS35 (UniProt P82673)
inactive: IRAK-1-4 Inhibitor I -0.035 | ibrutinib 0.004 | [1] -0.082 | ralimetinib -0.035 | [2] -0.047 | [3] -0.024 | [4] 0.083 | pinometostat 0.078 | [5] -0.186 | [6] -0.016 | [7] -0.013 | [8] -0.04 | [9] -0.007 | Nexturastat A 0.167 | vemurafenib -0.063 | [10] -0.022 | [11] 0.149 | givinostat 0.017 | barasertib -0.034

MTHFD1 (UniProt P11586)
inactive: IRAK-1-4 Inhibitor I 0.01 | ibrutinib -0.014 | [1] -0.068 | ralimetinib -0.001 | [2] -0.082 | [3] -0.102 | [4] -0.005 | pinometostat -0.034 | [5] 0.073 | [6] 0.052 | [7] -0.026 | [8] 0.003 | [9] 0.042 | Nexturastat A -0.046 | vemurafenib 0.06 | [10] 0.046 | [11] -0.013 | givinostat 0.048 | barasertib 0.038

MUL1 (UniProt Q969V5)
inactive: IRAK-1-4 Inhibitor I 0.009 | ibrutinib 0.009 | [1] -0.113 | ralimetinib -0.008 | [2] -0.068 | [3] -0.004 | [4] 0.027 | pinometostat 0.021 | [5] -0.01 | [6] -0.061 | [7] -0.015 | [8] 0.01 | [9] -0.004 | Nexturastat A -0.022 | vemurafenib -0.039 | [10] 0.024 | [11] 0.11 | givinostat 0.005 | barasertib 0.005

MRPS15 (UniProt P82914)
inactive: IRAK-1-4 Inhibitor I -0.062 | ibrutinib -0.022 | [1] -0.024 | ralimetinib 0.014 | [2] -0.12 | [3] -0.041 | [4] 0.004 | pinometostat 0.041 | [5] -0.2 | [6] 0.04 | [7] -0.026 | [8] -0.017 | [9] -0.022 | Nexturastat A 0.058 | vemurafenib -0.037 | [10] 0.062 | [11] 0.023 | givinostat 0.027 | barasertib 0.004

MRPS14 (UniProt O60783)
inactive: IRAK-1-4 Inhibitor I -0.003 | ibrutinib -0.03 | [1] -0.016 | ralimetinib 0.05 | [2] -0.183 | [4] 0.101 | pinometostat 0.068 | [12] 0.016 | [5] -0.122 | [6] -0.015 | [7] 0.002 | [8] -0.028 | [9] -0.063 | Nexturastat A 0.129 | vemurafenib -0.012 | [10] -0.048 | barasertib 0.081

MT1G (UniProt P13640)
inactive: IRAK-1-4 Inhibitor I 0.014 | ibrutinib 0.035 | [1] 0.018 | ralimetinib -0.029 | [3] 0.148 | [4] -0.042 | pinometostat -0.073 | [12] 0.091 | [5] -0.093 | [6] 0.02 | [7] 0.068 | [8] -0.045 | [9] 0.133 | vemurafenib -0.03 | [10] 0.011 | [11] -0.025 | givinostat -0.091 | barasertib -0.001

MRPS5 (UniProt P82675)
inactive: IRAK-1-4 Inhibitor I -0.071 | ibrutinib 0.057 | [1] -0.019 | ralimetinib 0 | [2] -0.088 | [3] -0.083 | [4] 0.078 | pinometostat 0.056 | [5] -0.207 | [6] 0.08 | [7] -0.086 | [8] -0.005 | [9] 0.004 | Nexturastat A 0.159 | vemurafenib -0.048 | [10] 0.062 | [11] 0.016 | givinostat 0.013 | barasertib 0.023

MSTO1 (UniProt Q9BUK6)
inactive: IRAK-1-4 Inhibitor I 0.012 | ibrutinib 0.009 | [1] -0.003 | ralimetinib -0.028 | [2] -0.162 | [3] -0.105 | [4] -0.003 | pinometostat -0.002 | [5] 0.043 | [6] -0.032 | [7] -0.052 | [8] -0.02 | [9] 0.024 | Nexturastat A -0.118 | vemurafenib 0.052 | [10] 0.018 | [11] -0.012 | givinostat 0.011 | barasertib 0.037

MRPS10 (UniProt P82664)
inactive: IRAK-1-4 Inhibitor I -0.024 | ibrutinib 0.02 | [1] -0.065 | ralimetinib -0.031 | [2] 0.01 | [3] -0.027 | [4] 0.066 | pinometostat 0.045 | [5] -0.28 | [6] 0.018 | [7] 0 | [8] 0 | [9] -0.03 | Nexturastat A 0.097 | vemurafenib -0.002 | [10] 0.006 | [11] -0.046 | givinostat 0.063 | barasertib -0.051

MSH3 (UniProt P20585)
active: [5] 0.27
inactive: IRAK-1-4 Inhibitor I -0.001 | ibrutinib -0.002 | [1] 0.054 | ralimetinib -0.053 | [2] 0.01 | [3] 0.068 | [4] 0.056 | pinometostat 0.043 | [6] 0.029 | [7] -0.033 | [8] 0.021 | [9] -0.101 | Nexturastat A -0.015 | vemurafenib 0.019 | [10] 0.053 | [11] -0.013 | givinostat 0.002 | barasertib -0.001

MRPS21 (UniProt P82921)
inactive: IRAK-1-4 Inhibitor I -0.143 | ibrutinib 0.029 | [1] 0.172 | ralimetinib -0.038 | [2] -0.069 | [3] 0.063 | [4] 0.063 | pinometostat 0.052 | [5] -0.207 | [6] 0.015 | [7] -0.059 | [8] 0.215 | [9] 0.107 | Nexturastat A 0.093 | vemurafenib 0.079 | [10] 0.132 | [11] -0.018 | givinostat -0.016 | barasertib -0.156

MTMR14 (UniProt Q8NCE2)
inactive: IRAK-1-4 Inhibitor I 0.027 | ibrutinib -0.069 | [1] -0.015 | ralimetinib 0.004 | [2] 0.028 | [3] -0.04 | [4] -0.004 | pinometostat -0.041 | [5] -0.029 | [6] -0.009 | [7] -0.048 | [8] -0.004 | [9] 0.02 | Nexturastat A 0.028 | vemurafenib -0.02 | [10] 0.071 | [11] -0.016 | givinostat 0.061 | barasertib 0.019

MYO19 (UniProt Q96H55)
inactive: IRAK-1-4 Inhibitor I 0.014 | ibrutinib -0.11 | [1] 0.168 | ralimetinib 0.115 | [2] 0.079 | [3] -0.06 | [4] 0.176 | pinometostat 0.014 | [7] 0.069 | [8] 0.091 | [9] -0.054 | Nexturastat A 0.382 | vemurafenib -0.082 | givinostat 0.143 | barasertib 0.039
active: [10] 0.554

MYO9A isoform 4 (UniProt B2RTY4)
inactive: IRAK-1-4 Inhibitor I -0.129 | ibrutinib 0.066 | [1] -0.044 | [2] -0.088 | [3] -0.004 | pinometostat 0.087 | [6] 0.129 | [9] -0.089 | Nexturastat A 0.17 | vemurafenib -0.11 | givinostat 0.084 | barasertib -0.029

Copied from above (two entries):
MTMR14 (UniProt Q8NCE2)
inactive: IRAK-1-4 Inhibitor I 0.027 | ibrutinib -0.069 | [1] -0.015 | ralimetinib 0.004 | [2] 0.028 | [3] -0.04 | [4] -0.004 | pinometostat -0.041 | [5] -0.029 | [6] -0.009 | [7] -0.048 | [8] -0.004 | [9] 0.02 | Nexturastat A 0.028 | vemurafenib -0.02 | [10] 0.071 | [11] -0.016 | givinostat 0.061 | barasertib 0.019

MYO19 (UniProt Q96H55)
inactive: IRAK-1-4 Inhibitor I 0.014 | ibrutinib -0.11 | [1] 0.168 | ralimetinib 0.115 | [2] 0.079 | [3] -0.06 | [4] 0.176 | pinometostat 0.014 | [7] 0.069 | [8] 0.091 | [9] -0.054 | Nexturastat A 0.382 | vemurafenib -0.082 | givinostat 0.143 | barasertib 0.039
active: [10] 0.554
